Data as given in PubChem BioAssay AID1508588 (Peter MacCallum Cancer Centre, 2020).

- Purpose: 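Which gene losses make BRAF-mutant melanoma cells more responsive to vemurafenib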 (primary screen)
- System: human WM266.4 melanoma cells (BRAF V600 mutant)
- Reagents: siRNA pool against human genes, 40 nM
- Time to read-out: 96 h from transfection to read-out
- Treatment: vemurafenib 300 nM (about IC25), added 48 h after transfection, for 48 h; comparison arm got DMSO vehicle only
- Measurement: 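Cell gain (DAPI nuclei at end minus before drug, mean of two replicates) and medium lactate by absorbance per cell, both as ratio to non-targeting siRNA, also grouped into fold-change classes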
- Scale: cell gain with vemurafenib: higher = more cell gain than with non-targeting siRNA; lactate per cell with vemurafenib: higher = more lactate made per cell
- Active means: 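Enhancement is called by pairing each knock-down's vehicle-arm and drug-arm fold-change classes for viability or glycolysis; which class combinations qualify is not given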
- Calls: active = enhances vemurafenib effect; inactive = no enhancement seen
The whole screen tested about 18,000 reagents; shown is a part drawn at random. In the full data, 790 (4.4%) are marked active. 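Calls rest on a combination of fold-change classes in drug and vehicle arms, not all shown here.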 The numbers tell different reagents against one gene apart. Some reagents were tested in more than one well and are listed for each.

no.	gene knocked down	reagent	cell gain with vemurafenib	lactate per cell with vemurafenib	activity call
1	CLEC2B	1	0.68	0.89	inactive
2	HSD17B8	1	0.69	0.69	inactive
3	RAC1	1	0.14	2.36	inactive
4	TTC3	1	0.67	1.17	inactive
5	KRTAP8-1	1	0.91	0.8	inactive
6	OSGEP	1	0.74	0.69	inactive
7	PTPN2	1	1.07	0.62	inactive
8	NAPEPLD	1	1.28	0.77	inactive
9	FABP1	1	0.61	1.29	inactive
10	UGGT1	1	0.54	1.1	inactive
11	GAGE12I	1	0.91	0.48	inactive
12	CCDC90B	1	0.78	1.39	inactive
13	CD14	1	0.59	1.15	inactive
14	MYOG	1	0.98	1.24	inactive
15	THNSL2	1	0.55	1.15	inactive
16	RIDA	1	0.73	0.67	inactive
17	CYP2C8	1	0.36	1.09	inactive
18	LPCAT1	1	0.23	0.92	inactive
19	PARPBP	1	0.87	0.78	inactive
20	EVX1	1	0.64	1.05	inactive
21	PPP2R1A	1	1	1.15	inactive
22	BNC2	1	0.44	1.5	inactive
23	MAGOH	1	0.71	0.54	inactive
24	RPS6KA1	1	0.31	1.11	inactive
25	PAFAH1B3	1	0.86	0.92	inactive
26	IL10	1	0.63	1.06	inactive
27	CLOCK	1	0.82	1.08	inactive
28	TERF1	1	0.42	0.82	inactive
29	MED14	1	0.55	0.97	inactive
30	CXCR6	1	0.39	1.56	inactive
31	MEPCE	1	0.27	2.34	inactive
32	UNC5CL	1	0.48	0.71	inactive
33	AIM2	1	0.87	0.7	inactive
34	FBXO2	1	0.22	1.59	inactive
35	REG1A	1	0.69	1.17	inactive
36	SPMIP6	1	0.6	0.28	inactive
37	CYGB	1	0.68	0.82	inactive
38	TRO	1	0.36	0.69	inactive
39	ZNF212	1	0.6	1.31	inactive
40	CENPQ	1	1.02	0.18	active
41	EFCAB14	1	0.11	1.28	inactive
42	OR13H1	1	0.43	1.86	inactive
43	S100A7P3	1	0.44	1.02	inactive
44	WASF2	1	0.23	1.04	inactive
45	SPHKAP	1	0.47	1.93	inactive
46	GBA3	1	0.55	0.32	inactive
47	CDC20	1	0.01	2.21	inactive
48	NUDT2	1	0.26	0.62	inactive
49	JPT1	1	0.75	1.1	inactive
50	BET1	1	0.43	1.3	inactive
51	DEPDC5	1	1.03	0.55	inactive
52	CLBA1	1	0.85	1.36	inactive
53	KPNB1	1	0.13	0.91	inactive
54	TMEM231	1	0.7	0.77	inactive
55	CD300LB	1	0.93	1.21	inactive
56	PPID	1	0.57	0.31	inactive
57	NPR1	1	0.68	0.43	inactive
58	NCAPH	1	0.74	1.73	inactive
59	DDAH2	1	0.21	1.88	inactive
60	PIGM	1	0.52	0.99	inactive
61	PLEKHO1	1	0.75	1.21	inactive
62	CSNK1A1L	1	0.71	0.8	inactive
63	USP40	1	0.19	2.29	inactive
64	ABCA6	1	0.89	0.56	active
65	GYG2	1	1.13	1.09	inactive
66	MECOM	1	0.58	1.31	inactive
67	MECOM	2	0.86	0.7	inactive
68	MRPL19	1	0.94	0.7	inactive
69	ALG1	1	0.71	0.77	inactive
70	ZNF660	1	0.85	0.94	inactive
71	CISH	1	1.07	0.59	inactive
72	TMEM121	1	0.53	1.36	inactive
73	SLC39A3	1	0.99	0.68	inactive
74	PNO1	1	0.3	0.34	active
75	TGFB3	1	0.56	0.9	inactive
76	PTPN9	1	0.73	1.16	inactive
77	MAP9	1	0.67	0.8	inactive
78	C10orf67	1	0.69	1.19	inactive
79	SERPINA3	1	0.62	0.72	inactive
80	LANCL3	1	0.75	0.82	inactive
81	HOXB4	1	0.94	1.01	inactive
82	IQCF2	1	0.63	1.08	inactive
83	SPRYD3	1	0.76	1.81	inactive
84	ZNF677	1	0.8	0.46	active
85	RNF133	1	0.93	0.84	inactive
86	RNF133	1	0.96	0.86	inactive
87	GREB1	1	0.72	0.36	inactive
88	MADD	1	0.75	1.08	inactive
89	ASB4	1	0.6	0.97	inactive
90	LPAR3	1	0.35	0.85	inactive
91	SURF2	1	0.47	1.52	inactive
92	GLYAT	1	0.58	1.35	inactive
93	SUN1	1	0.56	1.7	inactive
94	CNN1	1	0.87	0.94	inactive
95	TDRD3	1	0.88	0.88	inactive
96	MPZL1	1	0.81	0.91	inactive
97	GUCA2B	1	1.06	0.51	inactive
98	OR6V1	1	0.77	0.57	inactive
99	DHCR24	1	-0.07	1.09	inactive
100	USP43	1	-0.01	2.67	inactive
101	DCLRE1C	1	1.14	1.17	inactive
102	OTUD3	1	0.24	1.75	inactive
103	SMG8	1	0.52	0.94	inactive
104	MYBL1	1	0.6	1.39	inactive
105	ADAD2	1	0.53	1.02	inactive
106	PSMD8	1	-0.06	3.23	inactive
107	RRAGC	1	0.83	1.04	inactive

Quoted from the entries so far for reference:
no.	gene knocked down	reagent	cell gain with vemurafenib	lactate per cell with vemurafenib	activity call
56	PPID	1	0.57	0.31	inactive
57	NPR1	1	0.68	0.43	inactive
58	NCAPH	1	0.74	1.73	inactive
59	DDAH2	1	0.21	1.88	inactive
60	PIGM	1	0.52	0.99	inactive
61	PLEKHO1	1	0.75	1.21	inactive
62	CSNK1A1L	1	0.71	0.8	inactive
